Results on 1 molecule are retold here after paper PMC7663336.

The assay deals with voltage-dependent anion-selective channel (human (endogenous in A431)). Nature of the assay: co-IP; VDAC immunocaptured from lysate of the mitochondrial fraction of A431 cells (1 mL, 1.5 mg total protein) with VDAC antibody and protein A/G-conjugated beads overnight; four washes with TNES buffer; blot for HK2 and VDAC; cells treated with GL-V9, 10 uM MK2206 or SC79 for 36 h.

Results are given in words; binding and its absence hold for the method and conditions named. Binding seen in cells or lysates may run through a third protein. Binding calls can cover weak binding; strength is not graded here.

B1: Hexokinase II (enzyme, UniProt P52789 1-917)
chain: MIASHLLAYFFTELNHDQVQKVDQYLYHMRLSDETLLEISKRFRKEMEKGLGATTHPTAAVKMLPTFVRSTPDGTEHGEFLALDLGGTNFRVLWVKVTDNGLQKVEMENQIYAIPEDIMRGSGTQLFDHIAECLANFMDKLQIKDKKLPLGFTFSFPCHQTKLDESFLVSWTKGFKSSGVEGRDVVALIRKAIQRRGDFDIDIVAVVNDTVGTMMTCGYDDHNCEIGLIVGTGSNACYMEEMRHIDMVEGDEGRMCINMEWGAFGDDGSLNDIRTEFDQEIDMGSLNPGKQLFEKMISGMYMGELVRLILVKMAKEELLFGGKLSPELLNTGRFETKDISDIEGEKDGIRKAREVLMRLGLDPTQEDCVATHRICQIVSTRSASLCAATLAAVLQRIKENKGEERLRSTIGVDGSVYKKHPHFAKRLHKTVRRLVPGCDVRFLRSEDGSGKGAAMVTAVAYRLADQHRARQKTLEHLQLSHDQLLEVKRRMKVEMERGLSKETHASAPVKMLPTYVCATPDGTEKGDFLALDLGGTNFRVLLVRVRNGKWGGVEMHNKIYAIPQEVMHGTGDELFDHIVQCIADFLEYMGMKGVSLPLGFTFSFPCQQNSLDESILLKWTKGFKASGCEGEDVVTLLKEAIHRREEFDLDVVAVVNDTVGTMMTCGFEDPHCEVGLIVGTGSNACYMEEMRNVELVEGEEGRMCVNMEWGAFGDNGCLDDFRTEFDVAVDELSLNPGKQRFEKMISGMYLGEIVRNILIDFTKRGLLFRGRISERLKTRGIFETKFLSQIESDCLALLQVRAILQHLGLESTCDDSIIVKEVCTVVARRAAQLCGAGMAAVVDRIRENRGLDALKVTVGVDGTLYKLHPHFAKVMHETVKDLAPKCDVSFLQSEDGSGKGAALITAVACRIREAGQR
In the case of B1, the binding entry is on record as “binds”.
